Results: the supplement of paper PMC9233669
Variants at the floor of the assay are shown more often than the library holds them.

Assays:
biotinyl-Trp-oxazolone = test: self-aminoacylation, catalytic enhancement (BWO) (fold over background); higher = more active; k-Seq, kA / k0A0; sequences stand for … in GGGAAUGGAUCCACAUCUACGAAUUC…UUCACUGCAGACUUGACGAAGCUG
In short: (§1)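 Catalytic enhancement equals the median kA over the uncatalyzed rate, the latter read from the low-activity peak of a bimodal Gaussian fit. Values of kA came from fitting each sequence's fraction reacted to a pseudo-first-order model, with 1000 bootstraps. Reacted RNA was captured with streptavidin and quantified by triplicate qPCR and Illumina sequencing after 90 minutes at room temperature with 2–1250 μM biotinyl-aminoacyl-oxazolone and 0.43 μM mutagenized RNA pools bearing a 21-nt variable region.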

biotinyl-Leu-oxazolone = test: self-aminoacylation, catalytic enhancement (BLO) (fold over background); higher = more active; k-Seq, kA / k0A0; sequences stand for … in GGGAAUGGAUCCACAUCUACGAAUUC…UUCACUGCAGACUUGACGAAGCUG
In short: as §1

biotinyl-Val-oxazolone = test: self-aminoacylation, catalytic enhancement (BVO) (fold over background); higher = more active; k-Seq, kA / k0A0; sequences stand for … in GGGAAUGGAUCCACAUCUACGAAUUC…UUCACUGCAGACUUGACGAAGCUG
In short: as §1

biotinyl-Ile-oxazolone = test: self-aminoacylation, catalytic enhancement (BIO) (fold over background); higher = more active; k-Seq, kA / k0A0; sequences stand for … in GGGAAUGGAUCCACAUCUACGAAUUC…UUCACUGCAGACUUGACGAAGCUG
In short: as §1

biotinyl-Met-oxazolone = test: self-aminoacylation, catalytic enhancement (BMO) (fold over background); higher = more active; k-Seq, kA / k0A0; sequences stand for … in GGGAAUGGAUCCACAUCUACGAAUUC…UUCACUGCAGACUUGACGAAGCUG
In short: as §1

biotinyl-Phe-oxazolone = test: self-aminoacylation, catalytic enhancement (BFO) (fold over background); higher = more active; k-Seq, kA / k0A0; sequences stand for … in GGGAAUGGAUCCACAUCUACGAAUUC…UUCACUGCAGACUUGACGAAGCUG
In short: as §1

| Sequence | self-aminoacylation (biotinyl-Trp-oxazolone) | self-aminoacylation (biotinyl-Leu-oxazolone) | self-aminoacylation (biotinyl-Val-oxazolone) | self-aminoacylation (biotinyl-Ile-oxazolone) | self-aminoacylation (biotinyl-Met-oxazolone) | self-aminoacylation (biotinyl-Phe-oxazolone) |
| --- | --- | --- | --- | --- | --- | --- |
| CCACACUUCAAUCAAUCGGUC [Fam1B.1 aminoacylation ribozyme variant] | 21.8 | 1.51 | 1.17 | 1.1 | 1.05 | 42.7 |
| CCACACUUCACGAAAUCGGUC [Fam1B.1 aminoacylation ribozyme variant] | 1.02 | 1.16 | 1.09 | 0.987 | 1.07 | 0.814 |
| CCACACUUCACGCAAUCGGUA [Fam1B.1 aminoacylation ribozyme variant] | 1.31 | 0.528 | 1.16 | 1.41 | 0.914 | 0.338 |
| CCACACUUCAGGCAAACGGUC [Fam1B.1 aminoacylation ribozyme variant] | 0.725 | 0.88 | 1.11 | 0.841 | 0.911 | 0.961 |
| CCACACUUCAGGCAAUCGGUC [Fam1B.1 aminoacylation ribozyme variant] | 1.28 | 1.11 | 1.27 | 1.14 | 1.14 | 1.47 |
| CCACACUUCAGGCACUCGGUC [Fam1B.1 aminoacylation ribozyme variant] | 1.65 | 1.89 | 1.75 | 1.54 | 1.58 | 1.54 |
| CCACACUUCAGGCAGUCGGUC [Fam1B.1 aminoacylation ribozyme variant] | 1.32 | 1.62 | 1.48 | 1.48 | 1.04 | 0.789 |
| CCACACUUCAUGCAAUCGGAC [Fam1B.1 aminoacylation ribozyme variant] | 0.489 | 0.558 | 0.986 | 1 | 0.675 | 0.671 |
| CCACACUUCAUGCAUUCGGUC [Fam1B.1 aminoacylation ribozyme variant] | 0.78 | 0.757 | 1.06 | 0.924 | 0.889 | 0.592 |
| CCACACUUCCAGCAAUCCGUC [Fam1B.1 aminoacylation ribozyme variant] | 1.24 | 1.35 | 1.76 | 1.49 | 1.23 | 1.28 |
| CCACACUUCCAGCCAUCGGUC [Fam1B.1 aminoacylation ribozyme variant] | 1.35 | 1.49 | 1.98 | 1.66 | 1.48 | 0.676 |
| CCACACUUCGGGCAAUCGGUC [Fam1B.1 aminoacylation ribozyme variant] | 2.23 | 2.48 | 3.09 | 2.1 | 2.73 | 9.3 |
| CCACACUUCUACCAAUCGGUC [Fam1B.1 aminoacylation ribozyme variant] | 0.537 | 0.697 | 0.807 | 0.748 | 0.532 | 0.893 |
| CCACACUUCUAGCAAUCAGUC [Fam1B.1 aminoacylation ribozyme variant] | 0.459 | 0.622 | 0.721 | 0.797 | 0.648 | 1.14 |
| CCACACUUCUAGCAUUCGGUC [Fam1B.1 aminoacylation ribozyme variant] | 1.33 | 0.789 | 1.16 | 1.24 | 0.998 | 0.756 |
| CCACACUUGAAGCAAACGGUC [Fam1B.1 aminoacylation ribozyme variant] | 0.492 | 0.532 | 0.69 | 0.576 | 0.422 | 0.765 |
| CCACACUUGAAGCAAUCAGUC [Fam1B.1 aminoacylation ribozyme variant] | 0.437 | 0.56 | 0.512 | 0.564 | 0.416 | 0.939 |
| CCACACUUGAUGCAAUCGGUC [Fam1B.1 aminoacylation ribozyme variant] | 0.818 | 0.782 | 1.01 | 0.823 | 0.891 | 0.817 |
| CCACACUUGGAGCAAUCGGUC [Fam1B.1 aminoacylation ribozyme variant] | 1.36 | 0.863 | 1.25 | 1.21 | 0.838 | 0.829 |
| CCACACUUUAACCAAUCGGUC [Fam1B.1 aminoacylation ribozyme variant] | 1.03 | 0.749 | 1 | 0.901 | 0.761 | 1.39 |
| CCACACUUUAAGCAAUCGAUC [Fam1B.1 aminoacylation ribozyme variant] | 0.507 | 0.461 | 0.659 | 0.569 | 0.496 | 0.947 |
